Measurements reported in the supplement of paper PMC6411743.
± gives the standard deviation of the averaged measurements. Only a part is listed here, and it is no random draw. Small differences around the control level are noise.

Chains of the proteins cited; added tags and fusions are not shown. Lines headed by an entry give the natural chain unless they say otherwise; changes in a name come on top.
UniProt Q9NSG2: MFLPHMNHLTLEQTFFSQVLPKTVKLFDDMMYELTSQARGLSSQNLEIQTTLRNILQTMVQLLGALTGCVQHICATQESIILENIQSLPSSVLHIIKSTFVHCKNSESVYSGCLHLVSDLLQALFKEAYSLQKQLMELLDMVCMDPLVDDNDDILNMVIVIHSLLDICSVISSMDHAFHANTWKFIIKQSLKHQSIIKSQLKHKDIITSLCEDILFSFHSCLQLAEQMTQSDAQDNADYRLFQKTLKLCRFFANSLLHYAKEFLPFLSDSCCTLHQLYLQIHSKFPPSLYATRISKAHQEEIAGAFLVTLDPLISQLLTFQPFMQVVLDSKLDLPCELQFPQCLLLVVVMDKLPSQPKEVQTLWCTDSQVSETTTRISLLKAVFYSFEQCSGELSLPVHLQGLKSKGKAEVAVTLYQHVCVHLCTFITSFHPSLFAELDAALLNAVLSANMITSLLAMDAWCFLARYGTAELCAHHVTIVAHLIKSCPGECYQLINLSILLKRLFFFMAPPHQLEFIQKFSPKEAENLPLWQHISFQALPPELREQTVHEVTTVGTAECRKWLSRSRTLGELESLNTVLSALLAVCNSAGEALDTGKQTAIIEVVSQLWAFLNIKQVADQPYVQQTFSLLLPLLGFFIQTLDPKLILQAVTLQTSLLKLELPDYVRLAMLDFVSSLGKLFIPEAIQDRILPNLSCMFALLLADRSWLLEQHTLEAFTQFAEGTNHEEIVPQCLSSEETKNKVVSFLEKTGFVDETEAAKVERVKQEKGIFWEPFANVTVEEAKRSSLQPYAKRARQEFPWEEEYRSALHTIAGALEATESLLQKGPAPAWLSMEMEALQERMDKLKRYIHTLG
UniProt Q9NQG7: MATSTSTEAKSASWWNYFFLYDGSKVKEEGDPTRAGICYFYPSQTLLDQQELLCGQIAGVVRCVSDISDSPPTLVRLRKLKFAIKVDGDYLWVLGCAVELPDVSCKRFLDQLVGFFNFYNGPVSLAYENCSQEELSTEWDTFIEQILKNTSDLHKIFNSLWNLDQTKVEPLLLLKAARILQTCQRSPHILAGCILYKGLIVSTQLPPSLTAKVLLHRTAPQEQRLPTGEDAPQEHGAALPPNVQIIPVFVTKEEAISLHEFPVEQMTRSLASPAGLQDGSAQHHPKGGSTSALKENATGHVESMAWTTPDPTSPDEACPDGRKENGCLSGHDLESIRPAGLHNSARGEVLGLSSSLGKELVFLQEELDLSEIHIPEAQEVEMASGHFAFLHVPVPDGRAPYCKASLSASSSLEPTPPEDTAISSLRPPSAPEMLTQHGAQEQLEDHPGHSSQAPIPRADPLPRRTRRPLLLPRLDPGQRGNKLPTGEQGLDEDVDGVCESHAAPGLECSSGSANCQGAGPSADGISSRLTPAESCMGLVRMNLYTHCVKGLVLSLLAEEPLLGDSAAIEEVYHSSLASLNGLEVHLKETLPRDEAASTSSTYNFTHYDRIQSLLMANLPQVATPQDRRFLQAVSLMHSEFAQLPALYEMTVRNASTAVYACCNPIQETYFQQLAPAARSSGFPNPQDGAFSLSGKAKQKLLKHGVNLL
UniProt Q9NYH9: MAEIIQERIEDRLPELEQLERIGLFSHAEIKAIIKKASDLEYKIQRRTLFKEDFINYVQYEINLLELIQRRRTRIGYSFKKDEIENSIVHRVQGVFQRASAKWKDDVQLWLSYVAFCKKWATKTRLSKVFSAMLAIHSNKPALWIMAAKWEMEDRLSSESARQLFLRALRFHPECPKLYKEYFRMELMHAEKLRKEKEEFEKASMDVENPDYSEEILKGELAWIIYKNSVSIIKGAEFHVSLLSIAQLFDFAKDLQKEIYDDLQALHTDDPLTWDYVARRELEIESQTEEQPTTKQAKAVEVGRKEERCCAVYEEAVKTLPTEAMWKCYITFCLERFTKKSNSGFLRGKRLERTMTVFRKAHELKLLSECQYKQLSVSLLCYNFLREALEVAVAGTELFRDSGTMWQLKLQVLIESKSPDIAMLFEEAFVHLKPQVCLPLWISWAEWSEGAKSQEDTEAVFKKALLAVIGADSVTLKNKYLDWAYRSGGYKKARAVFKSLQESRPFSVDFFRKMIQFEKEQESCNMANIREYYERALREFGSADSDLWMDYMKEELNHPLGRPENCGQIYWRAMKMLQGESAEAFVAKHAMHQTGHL
UniProt Q9NZ01: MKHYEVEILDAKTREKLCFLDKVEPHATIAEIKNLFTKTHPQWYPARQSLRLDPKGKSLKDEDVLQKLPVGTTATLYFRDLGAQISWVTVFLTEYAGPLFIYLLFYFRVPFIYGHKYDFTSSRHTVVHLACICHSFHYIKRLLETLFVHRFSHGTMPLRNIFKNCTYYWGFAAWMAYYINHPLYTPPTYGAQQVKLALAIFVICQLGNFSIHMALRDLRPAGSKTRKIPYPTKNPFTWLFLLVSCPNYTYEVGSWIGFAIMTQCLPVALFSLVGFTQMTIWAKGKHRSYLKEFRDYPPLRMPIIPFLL
UniProt Q9NRX4: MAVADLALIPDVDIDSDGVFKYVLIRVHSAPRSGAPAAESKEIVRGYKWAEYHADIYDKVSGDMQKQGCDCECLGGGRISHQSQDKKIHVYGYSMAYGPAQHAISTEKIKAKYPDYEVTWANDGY
UniProt Q9NVP2, whole entry: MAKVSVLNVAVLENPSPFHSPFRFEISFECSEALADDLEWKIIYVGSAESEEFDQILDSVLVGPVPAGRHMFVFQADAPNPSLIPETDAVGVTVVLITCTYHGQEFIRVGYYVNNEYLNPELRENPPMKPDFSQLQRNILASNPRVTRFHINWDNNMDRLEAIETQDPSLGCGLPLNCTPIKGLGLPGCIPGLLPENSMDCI
UniProt Q9NR50: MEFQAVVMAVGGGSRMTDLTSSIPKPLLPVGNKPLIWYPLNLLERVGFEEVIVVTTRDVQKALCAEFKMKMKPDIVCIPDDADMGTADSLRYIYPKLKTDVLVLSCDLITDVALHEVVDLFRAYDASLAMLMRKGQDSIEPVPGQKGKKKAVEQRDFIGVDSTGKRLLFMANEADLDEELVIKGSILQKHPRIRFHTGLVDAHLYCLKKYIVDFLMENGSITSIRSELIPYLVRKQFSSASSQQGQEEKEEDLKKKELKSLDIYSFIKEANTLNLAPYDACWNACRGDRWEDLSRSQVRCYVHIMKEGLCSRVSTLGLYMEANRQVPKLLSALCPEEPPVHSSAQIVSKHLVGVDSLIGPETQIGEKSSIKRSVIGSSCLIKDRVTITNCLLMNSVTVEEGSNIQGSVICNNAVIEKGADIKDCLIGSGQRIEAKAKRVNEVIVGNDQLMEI
UniProt Q9NSD9: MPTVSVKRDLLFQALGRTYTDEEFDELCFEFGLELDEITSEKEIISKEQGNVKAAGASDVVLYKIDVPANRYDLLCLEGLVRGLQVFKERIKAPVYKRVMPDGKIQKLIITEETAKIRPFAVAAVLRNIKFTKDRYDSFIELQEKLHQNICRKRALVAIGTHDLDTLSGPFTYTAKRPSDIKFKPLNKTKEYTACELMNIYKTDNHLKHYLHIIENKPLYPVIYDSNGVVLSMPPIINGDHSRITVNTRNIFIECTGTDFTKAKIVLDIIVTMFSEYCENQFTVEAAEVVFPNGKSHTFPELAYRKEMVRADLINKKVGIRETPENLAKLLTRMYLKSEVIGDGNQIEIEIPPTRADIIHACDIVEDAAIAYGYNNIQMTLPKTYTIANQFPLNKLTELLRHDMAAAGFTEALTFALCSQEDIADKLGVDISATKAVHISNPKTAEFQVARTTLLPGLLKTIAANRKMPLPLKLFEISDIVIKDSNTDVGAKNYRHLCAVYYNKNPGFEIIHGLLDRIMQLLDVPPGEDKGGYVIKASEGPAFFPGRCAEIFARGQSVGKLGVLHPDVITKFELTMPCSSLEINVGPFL
UniProt Q9NWT6: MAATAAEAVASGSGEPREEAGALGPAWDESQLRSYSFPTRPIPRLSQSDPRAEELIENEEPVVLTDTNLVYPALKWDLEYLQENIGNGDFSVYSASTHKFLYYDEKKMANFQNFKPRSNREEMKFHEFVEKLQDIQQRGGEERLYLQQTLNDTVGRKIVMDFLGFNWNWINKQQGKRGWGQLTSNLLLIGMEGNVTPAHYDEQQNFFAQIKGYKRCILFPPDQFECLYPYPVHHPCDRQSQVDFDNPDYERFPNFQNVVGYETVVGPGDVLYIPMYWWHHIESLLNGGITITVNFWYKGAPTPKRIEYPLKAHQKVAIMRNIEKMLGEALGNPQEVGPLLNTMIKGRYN
UniProt Q9NXR7, whole entry: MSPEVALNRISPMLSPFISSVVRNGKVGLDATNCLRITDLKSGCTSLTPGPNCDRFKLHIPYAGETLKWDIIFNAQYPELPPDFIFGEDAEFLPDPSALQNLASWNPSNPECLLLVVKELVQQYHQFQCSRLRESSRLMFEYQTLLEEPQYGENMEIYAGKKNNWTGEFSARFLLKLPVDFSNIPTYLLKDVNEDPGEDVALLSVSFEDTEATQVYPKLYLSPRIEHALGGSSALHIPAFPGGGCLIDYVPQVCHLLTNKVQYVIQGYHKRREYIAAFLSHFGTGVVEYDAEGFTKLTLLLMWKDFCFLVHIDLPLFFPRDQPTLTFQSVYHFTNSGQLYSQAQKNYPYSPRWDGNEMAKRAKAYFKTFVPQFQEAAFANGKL
UniProt Q9NXC5: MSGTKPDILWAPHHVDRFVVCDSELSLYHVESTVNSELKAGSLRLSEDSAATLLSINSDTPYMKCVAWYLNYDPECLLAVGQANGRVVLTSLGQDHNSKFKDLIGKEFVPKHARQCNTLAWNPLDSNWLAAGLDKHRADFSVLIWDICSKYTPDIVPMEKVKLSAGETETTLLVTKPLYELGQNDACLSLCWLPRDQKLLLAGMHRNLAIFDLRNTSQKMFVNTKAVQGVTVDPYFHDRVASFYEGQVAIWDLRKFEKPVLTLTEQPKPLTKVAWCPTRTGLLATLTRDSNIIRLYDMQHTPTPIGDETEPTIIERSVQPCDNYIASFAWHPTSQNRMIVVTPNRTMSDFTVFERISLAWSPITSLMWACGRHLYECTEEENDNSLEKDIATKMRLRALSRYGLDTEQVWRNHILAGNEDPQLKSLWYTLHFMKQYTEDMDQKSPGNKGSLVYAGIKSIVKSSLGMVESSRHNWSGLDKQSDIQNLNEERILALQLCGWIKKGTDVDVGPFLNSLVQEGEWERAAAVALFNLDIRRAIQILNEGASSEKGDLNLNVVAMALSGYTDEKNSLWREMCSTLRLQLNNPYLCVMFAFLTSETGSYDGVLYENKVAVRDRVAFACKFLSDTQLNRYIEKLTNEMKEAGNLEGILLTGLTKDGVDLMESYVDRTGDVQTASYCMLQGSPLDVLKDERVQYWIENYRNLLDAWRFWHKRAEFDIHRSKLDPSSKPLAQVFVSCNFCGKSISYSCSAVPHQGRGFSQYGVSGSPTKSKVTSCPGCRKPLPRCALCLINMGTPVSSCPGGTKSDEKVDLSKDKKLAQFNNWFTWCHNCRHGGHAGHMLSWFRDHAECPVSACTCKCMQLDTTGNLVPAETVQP
UniProt Q9P0I2: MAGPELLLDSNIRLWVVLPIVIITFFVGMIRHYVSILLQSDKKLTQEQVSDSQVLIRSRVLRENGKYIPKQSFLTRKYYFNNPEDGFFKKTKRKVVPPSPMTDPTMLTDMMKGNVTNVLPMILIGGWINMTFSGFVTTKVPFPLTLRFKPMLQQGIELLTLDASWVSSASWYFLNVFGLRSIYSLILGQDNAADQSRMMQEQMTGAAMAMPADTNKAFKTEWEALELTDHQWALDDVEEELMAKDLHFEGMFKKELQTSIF
UniProt Q9P2R7: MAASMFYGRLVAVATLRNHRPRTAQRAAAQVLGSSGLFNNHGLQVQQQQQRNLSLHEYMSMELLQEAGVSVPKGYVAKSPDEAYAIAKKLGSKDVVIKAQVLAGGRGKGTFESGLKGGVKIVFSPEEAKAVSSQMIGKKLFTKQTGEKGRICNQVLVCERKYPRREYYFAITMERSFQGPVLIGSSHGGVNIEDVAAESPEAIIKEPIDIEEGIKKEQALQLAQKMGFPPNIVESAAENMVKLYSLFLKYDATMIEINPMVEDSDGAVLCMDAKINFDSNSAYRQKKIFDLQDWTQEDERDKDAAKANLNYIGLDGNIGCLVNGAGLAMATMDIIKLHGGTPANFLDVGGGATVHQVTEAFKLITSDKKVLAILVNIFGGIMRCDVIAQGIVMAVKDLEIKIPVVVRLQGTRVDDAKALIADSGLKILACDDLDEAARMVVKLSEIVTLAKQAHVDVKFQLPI
UniProt Q9NX46: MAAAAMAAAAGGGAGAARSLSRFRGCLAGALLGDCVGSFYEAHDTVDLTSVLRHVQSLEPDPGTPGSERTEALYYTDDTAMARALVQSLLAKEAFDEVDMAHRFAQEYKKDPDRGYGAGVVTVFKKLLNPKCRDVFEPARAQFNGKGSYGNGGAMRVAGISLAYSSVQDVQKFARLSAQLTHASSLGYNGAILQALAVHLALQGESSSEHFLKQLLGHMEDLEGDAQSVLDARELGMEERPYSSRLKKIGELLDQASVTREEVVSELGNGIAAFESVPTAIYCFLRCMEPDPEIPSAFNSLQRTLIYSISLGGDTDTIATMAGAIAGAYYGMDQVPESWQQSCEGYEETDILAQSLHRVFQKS

The targets below were run with Nc1ncnc2c1ncn2[C@@H]1O[C@H](COP(=O)(O)OP(=O)(O)NP(=O)(O)O)[C@@H](O)[C@H]1O [adenylyl imidodiphosphate] (assay: NP40-soluble protein abundance relative to vehicle (solubility fold change) (ratio); higher = more soluble protein in presence of AMP-PNP). Conditions: concentration: 0.1mM.
Outline: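 Crude Jurkat lysate, prepared by Dounce homogenisation, was exposed to eight concentrations from 0.1 to 10 mM for 10 min at room temperature and then 3 min at 37 °C. Solubilisation used 0.8% NP40 with benzonase for 60 min at 4 °C, followed by ultracentrifugation and TMT labelling of the supernatant for LC-MS/MS. After vsn normalisation of intensities, each value is the fold change against the detergent-processed vehicle within each replicate, across three independent experiments.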

Row | Target | NP40-soluble protein abundance
1 | UniProt Q9NPL8 | 0.957 ± 0.014
2 | UniProt Q9NSG2 and related entries | 0.997 ± 0.01
3 | UniProt Q9NQG7 and related entries | 1.02 ± 0.037
4 | AASDHPPT (UniProt Q9NRN7) | 0.971 ± 0.047
5 | LYAR (UniProt Q9NX58) | 1.01 ± 0.081
6 | UTP6 (UniProt Q9NYH9) | 1.03 ± 0.048
7 | ZNFX1 (UniProt Q9P2E3) | 1 ± 0.018

Same assay, conditions: concentration: 0.5mM

Row | Target | NP40-soluble protein abundance
8 | GTSE1 (UniProt Q9NYZ3) | 1.01 ± 0.038
9 | UniProt Q9NWU2 | 0.994 ± 0.033
10 | UniProt Q9NV56 | 1.02 ± 0.12
11 | UniProt Q9NUS5 | 0.958 ± 0.023
12 | RBM27 (UniProt Q9P2N5) | 1.04 ± 0.053
13 | NSMCE4A (UniProt Q9NXX6) | 0.988 ± 0.062
14 | MRPL15 (UniProt Q9P015) | 1.01 ± 0.07
15 | UniProt Q9NZ01 | 1.02 ± 0.12
16 | PHPT1 (UniProt Q9NRX4) | 1.01 ± 0.026
17 | ASF1B (UniProt Q9NVP2) | 0.977 ± 0.084
18 | UniProt Q9NXR1 and related entries | 0.9848 ± 0.0044
19 | EIF2B3 (UniProt Q9NR50) | 0.964 ± 0.026
20 | AATF (UniProt Q9NY61) | 0.943 ± 0.032
21 | CHST12 (UniProt Q9NRB3) | 1.01 ± 0.0081
22 | UniProt Q9P0J1 and related entries | 0.983 ± 0.03
23 | FARSB (UniProt Q9NSD9) | 0.984 ± 0.057
24 | UniProt Q9UBL3 and related entries | 0.997 ± 0.022
25 | HIF1AN (UniProt Q9NWT6) | 1.01 ± 0.018
26 | MTPAP (UniProt Q9NVV4) | 0.711 ± 0.03

Row | Target | NP40-soluble protein abundance
27 | UniProt Q9NX74 | 1 ± 0.012
28 | UniProt Q9NXR7 | 1.01 ± 0.049
29 | THG1L (UniProt Q9NWX6) | 1.034 ± 0.008
30 | UniProt Q9NRY2 | 1.017 ± 0.0097
31 | MIOS (UniProt Q9NXC5) | 0.992 ± 0.028
32 | UniProt Q9P0I2 | 0.981 ± 0.01
33 | UniProt Q9P2R7 and related entries | 1 ± 0.012
34 | NIT2 (UniProt Q9NQR4) | 1.01 ± 0.018
35 | UniProt Q9NVH6 and related entries | 0.988 ± 0.016
36 | ADPRHL2 (UniProt Q9NX46) | 0.954 ± 0.027
37 | UCKL1 (UniProt Q9NWZ5) | 0.981 ± 0.043
38 | UniProt Q9NPL8 | 0.967 ± 0.024
39 | UniProt Q9NSG2 and related entries | 0.978 ± 0.024
40 | UniProt Q9NQG7 and related entries | 0.9919 ± 0.0018
41 | AASDHPPT (UniProt Q9NRN7) | 0.945 ± 0.098
42 | LYAR (UniProt Q9NX58) | 1.01 ± 0.064
43 | UTP6 (UniProt Q9NYH9) | 0.986 ± 0.018
44 | ZNFX1 (UniProt Q9P2E3) | 0.969 ± 0.035
